According to PubChem BioAssay (NCATS):
Inconclusive results, whose numbers are uncertain, are shown with a selection of clear calls. For some of these results: A potency beside an inconclusive call is a rough fit, not a confirmed value. For some of these results: “Side channel” marks fits to a control or component signal instead of the main read-out. Active and inactive are the calls of the source. Unless noted, the call rests on the fitted dose curve; in most records, active means well fitted curve in the direction sought with a large enough effect; inconclusive means small, poorly fitted or top-dose-only effect, or another doubt; inactive means no such curve, though single readings can be large; an effect the other way counts as inactive or inconclusive.

Protein sequences, listed by entry. Tags and fused reporters are not part of them. Lines headed by an entry give the natural chain unless they say otherwise; changes in a name come on top.
UniProt P27695, whole entry, looked up: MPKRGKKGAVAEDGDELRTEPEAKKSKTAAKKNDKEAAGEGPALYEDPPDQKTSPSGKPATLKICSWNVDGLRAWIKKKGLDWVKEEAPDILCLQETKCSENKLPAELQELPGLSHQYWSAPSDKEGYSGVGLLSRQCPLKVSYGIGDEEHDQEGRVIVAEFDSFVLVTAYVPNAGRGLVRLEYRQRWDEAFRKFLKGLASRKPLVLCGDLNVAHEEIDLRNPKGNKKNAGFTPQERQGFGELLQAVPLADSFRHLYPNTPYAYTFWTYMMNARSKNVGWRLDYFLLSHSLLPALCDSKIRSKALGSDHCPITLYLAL
UniProt P03372, whole entry, looked up: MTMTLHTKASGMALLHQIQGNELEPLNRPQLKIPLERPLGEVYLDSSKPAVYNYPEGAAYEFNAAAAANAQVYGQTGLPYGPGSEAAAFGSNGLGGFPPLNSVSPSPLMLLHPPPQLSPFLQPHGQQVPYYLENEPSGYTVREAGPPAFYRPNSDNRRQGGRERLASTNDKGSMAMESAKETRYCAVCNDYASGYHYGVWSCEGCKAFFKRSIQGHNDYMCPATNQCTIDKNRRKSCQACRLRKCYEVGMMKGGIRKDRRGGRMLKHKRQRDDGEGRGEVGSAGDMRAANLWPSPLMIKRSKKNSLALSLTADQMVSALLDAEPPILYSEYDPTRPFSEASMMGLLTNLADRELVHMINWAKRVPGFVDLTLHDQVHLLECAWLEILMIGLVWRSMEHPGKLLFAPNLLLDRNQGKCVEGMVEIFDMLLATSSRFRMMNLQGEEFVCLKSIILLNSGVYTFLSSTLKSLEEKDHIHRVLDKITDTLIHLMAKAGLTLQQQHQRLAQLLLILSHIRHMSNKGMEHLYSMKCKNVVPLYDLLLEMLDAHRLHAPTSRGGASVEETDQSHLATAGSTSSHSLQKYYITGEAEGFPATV
UniProt Q03181: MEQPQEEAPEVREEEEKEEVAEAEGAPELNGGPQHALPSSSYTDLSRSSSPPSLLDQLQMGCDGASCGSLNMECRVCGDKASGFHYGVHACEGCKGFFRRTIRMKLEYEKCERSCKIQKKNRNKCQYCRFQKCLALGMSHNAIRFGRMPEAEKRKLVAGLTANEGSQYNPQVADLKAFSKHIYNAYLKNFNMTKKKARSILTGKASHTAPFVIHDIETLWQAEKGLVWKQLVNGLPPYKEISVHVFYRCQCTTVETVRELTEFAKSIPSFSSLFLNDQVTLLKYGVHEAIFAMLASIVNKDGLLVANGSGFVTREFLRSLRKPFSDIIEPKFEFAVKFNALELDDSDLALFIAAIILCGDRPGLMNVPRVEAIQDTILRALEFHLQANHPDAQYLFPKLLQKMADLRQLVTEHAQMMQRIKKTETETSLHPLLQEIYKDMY
UniProt P19793: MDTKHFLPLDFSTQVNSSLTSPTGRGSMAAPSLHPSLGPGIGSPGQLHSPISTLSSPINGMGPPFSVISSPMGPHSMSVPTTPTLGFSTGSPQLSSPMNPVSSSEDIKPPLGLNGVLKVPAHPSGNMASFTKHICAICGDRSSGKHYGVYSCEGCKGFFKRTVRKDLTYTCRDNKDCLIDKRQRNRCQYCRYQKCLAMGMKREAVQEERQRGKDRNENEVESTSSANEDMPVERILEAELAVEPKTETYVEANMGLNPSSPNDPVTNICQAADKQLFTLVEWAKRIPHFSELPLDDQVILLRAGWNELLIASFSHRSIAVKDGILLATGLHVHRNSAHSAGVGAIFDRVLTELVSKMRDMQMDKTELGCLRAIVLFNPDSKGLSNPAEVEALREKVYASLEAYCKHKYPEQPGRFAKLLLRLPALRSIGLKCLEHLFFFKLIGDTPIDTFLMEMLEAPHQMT
UniProt P10828: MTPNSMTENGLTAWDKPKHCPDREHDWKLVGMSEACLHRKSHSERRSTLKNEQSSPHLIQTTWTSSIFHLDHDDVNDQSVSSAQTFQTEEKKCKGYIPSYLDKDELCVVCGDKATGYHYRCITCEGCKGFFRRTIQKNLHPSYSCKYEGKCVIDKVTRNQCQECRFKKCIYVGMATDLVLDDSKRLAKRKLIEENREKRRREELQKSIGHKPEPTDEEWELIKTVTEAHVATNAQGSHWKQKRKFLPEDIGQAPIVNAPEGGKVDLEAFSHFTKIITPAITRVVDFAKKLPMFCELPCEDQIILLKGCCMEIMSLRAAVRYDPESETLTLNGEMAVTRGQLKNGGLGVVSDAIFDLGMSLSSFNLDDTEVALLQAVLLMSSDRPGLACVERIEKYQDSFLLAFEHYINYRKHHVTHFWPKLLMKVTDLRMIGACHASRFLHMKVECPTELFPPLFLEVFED
UniProt P01375, whole entry, looked up: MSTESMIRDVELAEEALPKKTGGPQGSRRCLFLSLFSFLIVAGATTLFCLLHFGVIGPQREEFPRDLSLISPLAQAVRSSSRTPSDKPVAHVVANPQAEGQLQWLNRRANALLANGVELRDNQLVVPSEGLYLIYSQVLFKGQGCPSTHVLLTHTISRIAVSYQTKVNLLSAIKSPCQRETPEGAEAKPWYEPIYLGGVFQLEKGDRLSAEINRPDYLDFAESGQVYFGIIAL

Key:
[1] = Counterscreen for APE1 Inhibitors: Fluorescent Dye Displacement Assay (AID 2564); conditions: DNA fluorescent dye displacement counterscreen, fluorescence; series mostly up to 28.5 µM;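 further: loss of thiazole orange fluorescence as the dye is displaced from duplex DNA; potency means the concentration at half of the fitted maximal effect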
Outline: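 Thiazole Orange (250 nM) bound to 50 nM TAMRA-labelled dsDNA with tetrahydrofuran abasic site; displacement by DNA-binding compounds lowers fluorescence. Buffer 50 mM Tris-HCl pH 7.5, 50 mM NaCl, 2 mM MgCl2, 0.01% Tween-20; endpoint read at 480/540 nm.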

[2] = target: Endonuclease 4 (Escherichia coli (strain K12)) (UniProt P0A6C1); test: Counterscreen for APE1 Inhibitors: qHTS Assay for Inhibitors of Endonuclease IV (AID 2565); further: potency means the concentration at half of the fitted maximal effect; conditions: E. coli Endo IV, fluorogenic AP-site DNA cleavage; series mostly up to 27.1 µM
Outline: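 E. coli EndoIV at 2 nM final, preincubated 15 min at room temperature with compound, then 50 nM TAMRA/BHQ-2 THF abasic-site duplex added. Buffer: 50 mM Tris-HCl pH 7.5, 50 mM NaCl, 2 mM MgCl2, 1 mM DTT, 0.01% Tween-20. Kinetic fluorescence increase, third minus first read.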

[3] = target: DNA repair nuclease/redox regulator APEX1 (Homo sapiens) (UniProt P27695); test: Confirmation qHTS Assay for Inhibitors of the Human Apurinic/apyrimidinic Endonuclease 1 (APE1) (AID 2572); conditions: purified APE1, fluorogenic abasic-site DNA cleavage; series mostly up to 57.1 µM; further: potency means the concentration at half of the fitted maximal effect; nearly all actives have a fitted effect of over 30% in size
Outline: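 Enzyme preincubated 15 min at room temperature with compound; reaction started with 50 nM final double-stranded THF abasic-site substrate (5'-TAMRA, 3'-BHQ-2). Fluorescence read kinetically (525/598 nm); third-minus-first read difference gives reaction progress.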

[4] = target: DNA repair nuclease/redox regulator APEX1 (Homo sapiens) (UniProt P27695); test: qHTS FP-Based Assay for Inhibitors of the Human Apurinic/apyrimidinic Endonuclease 1 (APE1) (AID 2573); conditions: APE1 binding to TAMRA-labelled double-stranded DNA, fluorescence polarization displacement; series mostly up to 28.5 µM; further: potency means the concentration at half of the fitted maximal effect
[5] = Cell Viability - LYMP2-017 (AID 972); conditions: LYMP2-017 lymphoblastoid cell viability; series mostly up to 92.2 µM; further: on the % scale 0 is the no-effect control and ±100 the full control effect; nearly all actives have a fitted effect of over 55% in size
Outline: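 2500 cells/well, 5 h 37 C; cpd 24 h 37 C in complete medium; CellTiter-Glo, 30 min RT; luminescence (ATP). AC50 via Hill fit, qHTS.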

[6] = Cell Viability - LYMP2-010 (AID 981); conditions: LYMP2-010 lymphoblastoid cell viability, qHTS; series mostly up to 92.2 µM; further: potency means the concentration at half of the fitted maximal effect; nearly all actives have a fitted effect of over 55% in size
Outline: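 Luminescent ATP signal (CellTiter-Glo) served as the viability read-out. Cells of the human lymphoblastoid line were treated with compound over a concentration range for 24 hours at 37 C, and AC50 values came from Hill-equation modeling.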

[7] = qHTS Assay for Identification of Small Molecule Inducers of Hypoxia Response (AID 2120; active means well fitted curve in the direction sought with a large enough effect in the signal ratio, with a control signal flat, not every such curve was filed as active; inconclusive means small, poorly fitted or top-dose-only effect, or a change in a side signal; inactive means no such curve, though single readings can be large or run the other way; the % refers to the signal ratio; further: 0% is about no effect); conditions: hypoxia response reporter cells, beta-lactamase ratio readout; activation: at 104 µM (top of the series)
Outline: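 ME-180 HRE-bla cells plated in Opti-MEM/0.5% dialyzed FBS, rested 4-5 h, then dosed with compound titrations by pin tool. After 17 h at 37 degrees C, CCF4 dye loaded 2.5 h at RT; 460/530 nm ratio gave %Activity and AC50.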

[8] = target: Estrogen receptor (Homo sapiens) (UniProt P03372); test: qHTS assay for small molecule agonists of estrogen receptor alpha signaling (AID 588514; calls by dose curve; further: potency means the concentration at half of the fitted maximal effect; nearly all actives have a fitted effect of over 70% in size); conditions: ER-alpha-UAS-bla HEK293, beta-lactamase ratio, 18 h; activation: at 76.8 µM (top of the series), percent of full estradiol response, vehicle zero
Outline: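 Cells were plated at 5000/well, incubated 4 hrs at 37 C, dosed with compound titration series, incubated 18 hrs at 37 C, loaded with CCF4 dye for 2 hrs at RT, then fluorescence was read.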

[9] = target: Peroxisome proliferator-activated receptor delta (Homo sapiens) (UniProt Q03181); test: qHTS assay for small molecule antagonists of peroxisome proliferator-activated receptor delta signaling (AID 588535; active means well fitted inhibition curve with a large enough effect in the signal ratio, with a control signal flat, not every such curve was filed as active; inconclusive means small, poorly fitted or top-dose-only effect, or effect the other way, or a change in a side signal; inactive means no such curve, though single readings can be large or run the other way; the % refers to the signal ratio; further: potency means the concentration at half of the fitted maximal effect); conditions: HEK293T PPARd-UAS-bla, beta-lactamase FRET ratio, 18 h; activity change, negative = inhibition: at 76.7 µM (top of the series)
Outline: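 Antagonist-mode beta-lactamase reporter (GeneBLAzer PPAR-delta-UAS-bla) in HEK293T cells, 2% charcoal/dextran FBS, 4000 cells/well. Compound titrations, 18 h at 37 C; CCF4 ratio read, IC50 and efficacy from Hill fits.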

[10] = target: Peroxisome proliferator-activated receptor gamma (Homo sapiens) (UniProt P37231); test: qHTS assay for small molecule agonists of peroxisome proliferator-activated receptor gamma signaling (AID 588536; active means well fitted curve in the direction sought with a large enough effect in the signal ratio, with a control signal flat, not every such curve was filed as active; inconclusive means small, poorly fitted or top-dose-only effect, or effect the other way, or a change in a side signal; inactive means no such curve, though single readings can be large or run the other way; the % refers to the signal ratio;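 further: 0% = DMSO basal wells and 100% = rosiglitazone at 2 µM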); conditions: HEK293 PPARg-UAS-bla, beta-lactamase ratio, 16 h; activation: at 76.7 µM (top of the series), percent of rosiglitazone response, DMSO as zero
Outline: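 GeneBLAzer PPAR-gamma-UAS-bla HEK293 cells in 1% charcoal/dextran-treated FBS medium were treated 16 h at 37 C with compounds. Beta-lactamase activity was read by CCF4 ratio (460/530 nm). Response was normalized to 2 uM rosiglitazone (100%) and DMSO, then Hill-fitted for EC50 and efficacy.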

[11] = target: Peroxisome proliferator-activated receptor gamma (Homo sapiens) (UniProt P37231); test: qHTS assay for small molecule antagonists of peroxisome proliferator-activated receptor gamma signaling (AID 588537; active means well fitted inhibition curve with a large enough effect in the signal ratio, with a control signal flat, not every such curve was filed as active; inconclusive means small, poorly fitted or top-dose-only effect, or effect the other way, or a change in a side signal; the % refers to the signal ratio; further: potency means the concentration at half of the fitted maximal effect;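 on activity, negative = inhibition: reporter cells co-stimulated with 50 nM rosiglitazone agonist during compound treatment; % of control where 0% means no effect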); conditions: HEK293 PPARg-UAS-bla, beta-lactamase ratio, antagonist mode; activity, negative = inhibition: at 76.8 µM (top of the series)
Outline: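 PPARγ-UAS-bla HEK293 cells (3000/well) in 1% charcoal/dextran-stripped FBS are treated with compound, then stimulated with 50 nM rosiglitazone for 16 h at 37 °C. Read-out is CCF4 β-lactamase fluorescence after 2 h at RT. IC50 comes from Hill fits normalised to rosiglitazone and DMSO.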

[12] = target: Retinoic acid receptor RXR-alpha (Homo sapiens) (UniProt P19793); test: qHTS assay for small molecule antagonists of retinoid X receptor alpha signaling (AID 588546; active means well fitted inhibition curve with a large enough effect in the signal ratio, with a control signal flat, not every such curve was filed as active; inconclusive means small, poorly fitted or top-dose-only effect, or effect the other way, or a change in a side signal; inactive means no such curve, though single readings can be large or run the other way; the % refers to the signal ratio;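 further: cells stimulated with 9-cis-retinoic acid as agonist; on the % scale 0 is the no-effect control and ±100 the full control effect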); conditions: HEK293T RXRa-UAS-bla, beta-lactamase ratio, antagonist mode
Outline: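 Beta-lactamase reporter inhibition, read as CCF4 fluorescence ratio (ex 405, em 460/530 nm) after 2 h at RT. HEK293T UAS-bla cells, 2500/well, were stimulated with 9-cis-RA at 500 or 100 nM final alongside test compound for 18 h at 37 C.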

[13] = target: Thyroid hormone receptor beta (Homo sapiens) (UniProt P10828); test: qHTS assay for small molecule antagonists of thyroid hormone receptor beta signaling (AID 588547; active means well fitted inhibition curve with a large enough effect in the signal ratio, with a control signal flat, not every such curve was filed as active; inconclusive means small, poorly fitted or top-dose-only effect, or effect the other way, or a change in a side signal; the % refers to the signal ratio;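 further: cells stimulated with 0.4 nM T3 agonist during compound exposure; on the % scale 0 is the no-effect control and ±100 the full control effect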); conditions: TR-UAS-bla HEK293, beta-lactamase ratio, antagonist mode, 18 h
Outline: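 TR-UAS-bla GripTite HEK293 cells in 2% charcoal/dextran FBS medium; compounds 0.59 nM to 92 uM with T3 at 0.4nM final, 18 h at 37 C. Beta-lactamase read by CCF4 fluorescence (460/530 nm); Hill fits gave IC50 and efficacy.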

[14] = qHTS assay for small molecule disruptors of the mitochondrial membrane potential - 1 hr assay (AID 651754; calls by dose curve; further: potency means the concentration at half of the fitted maximal effect; nearly all actives have a fitted effect of over 35% in size); conditions: ratio change, negative = depolarisation: at 92.2 µM (top of the series)
Outline: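 HepG2, 2,000 cells/well, overnight attachment; cpd or DMSO 1 hr, 37C/5% CO2; Mito-MPS dye 30 min, 37C; fluorescence monomer (490/535) and aggregate (540/590).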

[15] = qHTS assay for small molecule disruptors of the mitochondrial membrane potential - 5 hr assay (AID 651755; calls by dose curve; further: on the % scale 0 is the no-effect control and ±100 the full control effect; nearly all actives have a fitted effect of over 40% in size); conditions: JC-1-type ratio dye; ratio change, negative = disruption: at 92.2 µM (top of the series)
Outline: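 HepG2 cells (2,000/well), attached overnight, exposed to compound 5 hr at 37C, then Mito-MPS dye 30 min. Fluorescence read for monomers (490/535 nm) and aggregates (540/590 nm).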

[16] = target: Tumor necrosis factor (Homo sapiens) (UniProt P01375); test: qHTS assay to identify small molecules that stimulate Tumor Necrosis Factor-alpha (TNF-alpha) secretion (AID 651757; active means well fitted curve in the direction sought with a large enough effect in the signal ratio; inconclusive means small, poorly fitted or top-dose-only effect, or a change in a side signal; inactive means no such curve, though single readings can be large or run the other way; the % refers to the signal ratio; further: 0% is about no effect); conditions: Human cells, HTRF 665/615 ratio; activation (TNF-alpha secretion): at 92.2 µM (top of the series)
Outline: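 Read-out is HTRF, a TR-FRET sandwich of cryptate- and XL665-labeled anti-TNF-alpha antibodies detecting cytokine secreted by THP-1 cells. Cells had been incubated with test compounds at 37 C for 17 hrs beforehand.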

[17] = qHTS assay to identify small molecules that stimulate interleukin-8 (IL-8) secretion (AID 651758; active means well fitted activation curve with a large enough effect in the signal ratio; inconclusive means small, poorly fitted or top-dose-only effect, or effect the other way, or a change in a side signal; the % refers to the signal ratio; further: potency means the concentration at half of the fitted maximal effect; on activation: 0% is about no effect); conditions: HTRF ratio (665/615); activation: at 92.2 µM (top of the series)
Outline: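 THP-1 cells (2000/well) exposed to compound 16 h at 37 C; secreted IL-8 then detected by HTRF with cryptate- and XL665-labelled anti-IL-8 antibody pair after 1-3 h at room temperature.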

[18] = MultiTox-Fluor Cytotoxicity Assay - LYMP1-002 - Dead Cells (AID 960); conditions: LYMP1-002 lymphoblastoid cells, dead-cell protease fluorescence; cytotoxicity (dead cells): at 46.1 µM (top of the series); further: potency means the concentration at half of the fitted maximal effect; nearly all actives have a fitted effect of over 60% in size
Outline: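 LYMP1-002 cells 2500/well; 5 hr 37 C pre-incubation; compound 16 hr 37 C; MultiTox-Fluor reagent 60 min RT; dead-cell fluor Ex/Em 485/520. Norm. to DMSO (0%) vs 15 uM tetraoctylammonium bromide (100%); Hill AC50.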

[19] = target: Glucocorticoid receptor (Homo sapiens) (UniProt P04150); test: qHTS assay for small molecule agonists of glucocorticoid receptor signaling (AID 588532; active means well fitted curve in the direction sought with a large enough effect in the signal ratio, with a control signal flat; inconclusive means small, poorly fitted or top-dose-only effect, or a change in a side signal; inactive means no such curve, though single readings can be large or run the other way; the % refers to the signal ratio; further: potency means the concentration at half of the fitted maximal effect); conditions: HeLa MMTV-bla, beta-lactamase ratio, agonist, 18 h; activation: hits give high values, percent of dexamethasone control, DMSO zero
Outline: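 MMTV-bla HeLa beta-lactamase reporter cells in 1% charcoal/dextran FBS medium, compounds up to 92 uM for 18 h at 37 C, CCF4 readout; normalized to 0.1 uM dexamethasone (100%), EC50 and efficacy from Hill fits.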

[20] = target: Retinoic acid receptor RXR-alpha (Homo sapiens) (UniProt P19793); test: qHTS assay for small molecule agonists of retinoid X receptor alpha signaling (AID 588544; calls by dose curve;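 further: 0% = DMSO basal wells and 100% = reference agonist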); conditions: HEK293T RXRa-UAS-bla, beta-lactamase reporter, 18 h; activation: at 76.7 µM (top of the series) unless noted

With O=C(Nc1ccc2nc(-c3ccco3)c(-c3ccco3)nc2c1)N1CCCCCC1 as the molecule, how does the Potency [1] read?
The Potency was inconclusive: 11.2 µM [inhibitor, partial curve].

What about the Potency [2] of the same molecule?
The Potency was inconclusive: 15.8 µM [inhibitor, single point].

What about the Potency [3] of the same molecule?
The Potency was active: 3.98 µM.

What about the Potency [4] of the same molecule?
Its Potency is active: 12.6 µM.

What does the source list for Oc1cccc(Nc2ccccc2)c1?
Potency [5]: inactive; Potency [6]: inconclusive: 39.8 µM [cytotoxic, partial curve, poor fit]; Potency [7]: inactive; Potency [8]: active: 25.1 µM; Potency [9]: inconclusive: 0.794 µM [inhibitor, full curve, poor fit]; Potency [10]: inactive; Potency [11]: inconclusive: 44.7 µM [inhibitor, partial curve]; max response [12]: inconclusive: -19.1%; activity change % (negative = inhibition) [13]: inconclusive: 4.97%; Potency [14]: inconclusive: 37.6 µM [inhibitor, partial curve]; ratio change, negative = disruption [15]: inconclusive: -38.2%; activation (TNF-alpha secretion) [16]: inconclusive: 3.26%; activation [17]: inconclusive: 6.81%

Which Potency [1] does the source give for Cc1ccc(/C=c2\sc3nc(-c4ccco4)nn3c2=O)o1 here?
The Potency was inconclusive: 10 µM [inhibitor, partial curve, poor fit].

With NS(=O)(=O)c1ccc(N/N=C/c2ccc(O)c(O)c2O)c([N+](=O)[O-])c1 as the molecule, how does the Potency [1] read?
Its Potency is active: 12.6 µM.

Which Potency [1] does the source give for COc1cc(O)c2c(c1)oc(=O)c1c3cc(O)c(O)cc3oc21 here?
The Potency was active: 8.91 µM.

Which results are given for c1ccc2n[nH]nc2c1?
Potency [18]: inconclusive: 31.6 µM [cytotoxic, single point]; Potency [7]: inactive; Potency [19]: inconclusive: 4.47 µM [side channel, falling, full curve, poor fit]; Potency [10]: inactive; activity, negative = inhibition [11]: inconclusive: 9.41%; Potency [20]: inactive; activity change % (negative = inhibition) [13]: inactive: -7.43%; Potency [17]: inconclusive: 75 µM [inhibitor, single point]
